The values that follow come from PMC11137987.

Protein sequences, listed by entry. Tags and fused reporters are not part of them.
UniProt P04150: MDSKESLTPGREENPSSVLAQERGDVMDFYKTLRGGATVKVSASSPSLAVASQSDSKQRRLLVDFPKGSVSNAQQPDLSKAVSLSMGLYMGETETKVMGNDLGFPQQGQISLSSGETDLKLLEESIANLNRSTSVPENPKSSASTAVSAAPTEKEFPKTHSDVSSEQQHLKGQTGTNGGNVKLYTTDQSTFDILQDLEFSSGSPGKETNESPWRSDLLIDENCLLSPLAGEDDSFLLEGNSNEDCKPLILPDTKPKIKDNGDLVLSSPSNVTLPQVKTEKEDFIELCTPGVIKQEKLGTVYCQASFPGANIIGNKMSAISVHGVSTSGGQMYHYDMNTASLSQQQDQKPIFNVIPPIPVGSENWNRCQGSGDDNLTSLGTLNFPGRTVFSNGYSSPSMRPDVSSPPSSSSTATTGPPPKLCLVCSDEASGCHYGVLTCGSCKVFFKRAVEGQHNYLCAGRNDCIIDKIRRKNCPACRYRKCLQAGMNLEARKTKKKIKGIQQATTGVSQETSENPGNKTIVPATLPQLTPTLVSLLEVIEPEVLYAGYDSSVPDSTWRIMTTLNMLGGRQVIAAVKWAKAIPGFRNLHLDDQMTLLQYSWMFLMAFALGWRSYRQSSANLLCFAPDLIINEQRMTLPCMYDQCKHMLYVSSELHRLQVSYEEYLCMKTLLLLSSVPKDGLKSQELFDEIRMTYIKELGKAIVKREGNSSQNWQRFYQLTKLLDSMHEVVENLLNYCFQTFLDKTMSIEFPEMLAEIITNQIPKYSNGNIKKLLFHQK
UniProt P05412: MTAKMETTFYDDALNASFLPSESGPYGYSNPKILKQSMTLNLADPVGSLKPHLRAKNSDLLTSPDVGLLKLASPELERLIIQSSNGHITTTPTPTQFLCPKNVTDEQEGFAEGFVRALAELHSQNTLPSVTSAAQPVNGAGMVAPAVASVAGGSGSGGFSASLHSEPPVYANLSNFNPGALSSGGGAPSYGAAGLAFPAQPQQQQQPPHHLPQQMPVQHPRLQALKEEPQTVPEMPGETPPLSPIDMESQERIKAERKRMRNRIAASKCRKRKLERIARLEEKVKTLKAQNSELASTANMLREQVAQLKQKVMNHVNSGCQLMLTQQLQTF
UniProt Q04206: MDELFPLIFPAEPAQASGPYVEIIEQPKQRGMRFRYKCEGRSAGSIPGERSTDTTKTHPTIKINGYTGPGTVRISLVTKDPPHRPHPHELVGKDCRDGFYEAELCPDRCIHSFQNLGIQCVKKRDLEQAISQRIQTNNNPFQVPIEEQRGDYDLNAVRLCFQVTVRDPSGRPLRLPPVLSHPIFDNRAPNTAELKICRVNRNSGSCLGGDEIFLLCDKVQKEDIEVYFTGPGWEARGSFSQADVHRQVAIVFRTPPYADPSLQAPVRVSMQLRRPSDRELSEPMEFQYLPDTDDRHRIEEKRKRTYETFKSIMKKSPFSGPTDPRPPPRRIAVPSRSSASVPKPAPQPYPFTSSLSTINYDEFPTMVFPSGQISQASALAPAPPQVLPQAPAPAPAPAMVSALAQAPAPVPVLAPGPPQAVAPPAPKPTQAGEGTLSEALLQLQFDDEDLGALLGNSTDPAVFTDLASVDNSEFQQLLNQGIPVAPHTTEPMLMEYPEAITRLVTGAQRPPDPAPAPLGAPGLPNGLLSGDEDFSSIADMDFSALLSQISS

These are yes or no findings as the source states them, for the method shown. Binding seen in cells or lysates may run through a third protein. Some entries that bind do so weakly or less than the wild type.

In the assay the target is glucocorticoid receptor (human (endogenous in primary ASMC)) (UniProt P04150). As to the kind of experiment: co-IP; endogenous proteins in lysates of primary ASMC from COPD responders and non-responders to ICS, without or with dexamethasone (1 x 10^-8 M); non-denaturing lysis buffer with 0.1% SDS, 1% NP40 and 0.5% deoxycholate; 100 µg protein with primary antibody overnight at 4 °C, sepharose beads 1 h; detection by Western blot. A general note: A western blot detects proteins with antibodies after separation by electrophoresis.

On to c-Jun (from UniProt P05412 1-331), for which the binding entry is given as “binds”. In the case of NF-κB p65 (from UniProt Q04206 1-551), the binding entry is listed as “binds”.
